Measurements reported in PubChem BioAssay AID504444 (National Center for Advancing Translational Sciences (NCATS), 2011).
The campaign covered roughly 360,000 compounds. About 7,500 (2.1%) were called active. The shares of active, inactive and inconclusive entries below differ from those in the screen. Calls follow the shape of the dose curve; as a rule, active = well fitted inhibition curve with a large enough effect; inconclusive = small, poorly fitted or top-dose-only effect, or effect the other way; inactive = flat fitted curve, though single readings scatter. A potency beside an inconclusive call is a rough fit, not a confirmed value.

Assay: Nrf2 qHTS screen for inhibitors; also: nearly all actives have a fitted effect of over 60% in size
Conditions: A549 ARE-Fluc reporter, luciferase luminescence, 18-24 h; series mostly up to 46 µM
How it was run: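 Reporter: ARE-Fluc in A549. Exposure: 18-24 h, 37 °C, 5% CO2, 5% FBS OPTI-MEM. Readouts: fluorescent cytotoxicity (CellTiter-Fluor), then luminescent Nrf2 signal after BugLite.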
Potency is read from the fitted curve at half-maximal effect.

SMILES | Potency
O=C(O)C(Cc1ccccc1)N=Cc1c(O)c2ccccc2oc1=O (stereo unspecified) | inconclusive: 29.1 µM [falling, single point]
Cc1cccc(Nc2nc(NCc3ccco3)c3ccccc3n2)c1 | inconclusive: 25.9 µM [falling, single point]
COc1ccc(N2CCN(C(=O)CCc3c(C)nc4cc(-c5cccc(F)c5)nn4c3C)CC2)cc1 | inconclusive: 1.64 µM [falling, full curve]
CCc1nc(N2CCN(C(=O)c3ccco3)CC2)c(C#N)c2c1COC(C)(C)C2 | active: 14.6 µM
CC(=O)N1CCc2c(sc3c2c(=O)n(-c2ccccc2)c(=O)n3Cc2cccc(C(F)(F)F)c2)C1 | inconclusive: 29.1 µM [falling, single point]
Cc1csc(NC(=O)c2cccc(S(=O)(=O)N3CCCCC3)c2)n1 | inactive
CC(C)(C)c1ccc(O)c(/C=N\O)c1 | inactive
Cc1sc2ncnc(Sc3nnnn3-c3ccccc3)c2c1C | inconclusive: 16.4 µM [falling, single point]
CC(=O)Nc1ccc(-c2cn3cc(C)ccc3n2)cc1 | inactive
O=C(O)Cc1ccc2sc(-c3ccccc3)nc2c1 | inactive
Fc1ccc(Cc2cn3cc(-c4ccc(F)cc4)nc3s2)cc1 | inconclusive: 1.84 µM [activator, partial curve]
CC(C)(C)C(=O)NC(Nc1cccc2cccnc12)C(Cl)(Cl)Cl (stereo unspecified) | inconclusive: 16.4 µM [falling, partial curve, poor fit]
CC(=O)Nc1ccc(C(=O)N2CCCc3ccccc32)cc1 | inactive
CCCNC(=S)N1CCN(C(c2ccccc2)c2ccccc2)CC1 | inactive
O=C(NCC1CCN(Cc2ccccc2F)CC1)Nc1cccc(Br)c1 | inconclusive: 29.1 µM [falling, single point]
CC1=C(C(=O)OCc2ccccc2)C(c2cccnc2)c2c(n(C)c(=O)n(C)c2=O)N1 (stereo unspecified) | inconclusive: 32.6 µM [falling, single point]
Cc1c(OCC(=O)NC2CC(C)(C)NC(C)(C)C2)ccc2c3c(c(=O)oc12)CCC3 | inactive
CC(=O)NCCc1nc2ccccc2n1CCOc1ccccc1C | inactive
Cc1ccc(NC2CCCN(C(=O)c3ccoc3C)C2)cc1C (stereo unspecified) | inconclusive: 0.058 µM [falling, partial curve, poor fit]
CC1=Nc2cc(C(=O)NCc3ccco3)ccc2Sc2ccc(C)cc21 | inconclusive: 3.26 µM [activator, full curve, poor fit]
O=C(Nc1cc(Sc2ccccn2)cc([N+](=O)[O-])c1)c1cccc(Cl)c1 | inconclusive: 16.4 µM [falling, single point]

In the list so far, these contain an aryl thioether with sulfur outside any ring.
SMILES | Potency
Cc1sc2ncnc(Sc3nnnn3-c3ccccc3)c2c1C | inconclusive: 16.4 µM [falling, single point]
O=C(Nc1cc(Sc2ccccn2)cc([N+](=O)[O-])c1)c1cccc(Cl)c1 | inconclusive: 16.4 µM [falling, single point]
